From patent publication US8895738B2, “Mesoionic pyrido [1, 2-A] pyrimidine pesticides” (E I du Pont de Nemours and Company, priority 2010, dated 2014)
Some entries share one result that the patent states for a list of compounds.

System: potato leafhopper (Empoasca fabae)
Test: Test E: control of potato leafhopper on Soleil bean plant, contact and/or systemic
Assay type: in vivo
Details: sprayed at 50 ppm; assessed after 6 days
Description: For evaluating control of potato leafhopper (Empoasca fabae) through contact and/or systemic means, the test unit consisted of a small open container with a 5-6-day-old Soleil bean plant (primary leaves emerged) inside. White sand was added to the top of the soil and one of the primary leaves was excised prior to application.
Test compounds were formulated and sprayed at 250, 50, 10 and/or 2 ppm, and the tests were replicated three times as described for Test A. After spraying, the test units were allowed to dry for 1 h before they were post-infested with 5 potato leafhoppers (18-21-day-old adults). A black, screened cap was placed on the top of each test unit, and the test units were held for 6 days in a growth chamber at 24° C. and 70% relative humidity. Each test unit was then visually assessed for insect mortality.

3-(4-chloro-2-fluorophenyl)-2-hydroxy-4-oxo-1-(5-pyrimidinylmethyl)-4H-pyrido[1,2-a]pyrimidinium inner salt [Compound 13]
control efficacy: mortality: ≥ 80%
